Measurements from the supplement of paper PMC8728848.
Some of the results follow.

Tests used:
Assay in all cases: glycan array binding signal (z-score within array); higher = stronger binding
Details in all cases: glycan notation: IUPAC condensed, linker removed
[1] = biological target: Gal(b1-4)GlcNAc(b1-2)Man(a1-3)[Gal(b1-4)GlcNAc(b1-2)Man(a1-6)]Man(b1-4)GlcNAc(b1-4)GlcNAc
Procedure, shortened: (§1)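 Glycan array data came from 3228 arrays in the Consortium for Functional Glycomics database, and only arrays with an available protein sequence were kept. Glycan names were put into IUPAC-condensed notation, and columns mapping to the same glycan were averaged. The binding signal is a within-array Z-score, averaged across arrays of one protein sequence run at different concentrations or buffers and across linkers. A negative Z-score can be read as non-binding.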

[2] = biological target: Gal(b1-4)GlcNAc(b1-2)Man(a1-3)[Gal(b1-4)GlcNAc(b1-2)Man(a1-6)]Man(b1-4)GlcNAc(b1-4)[Fuc(a1-6)]GlcNAc
Procedure, shortened: as §1

[3] = biological target: Gal(b1-4)GlcNAc(b1-2)Man(a1-3)[Gal(b1-4)GlcNAc(b1-2)][GlcNAc(b1-4)]Man(b1-4)GlcNAc(b1-4)GlcNAc
Procedure, shortened: as §1

[4] = biological target: Gal(b1-4)GlcNAc(b1-2)Man(a1-3)[GlcNAc(b1-2)Man(a1-6)]Man(b1-4)GlcNAc(b1-4)GlcNAc
Procedure, shortened: as §1

[5] = biological target: Gal(b1-4)GlcNAc(b1-2)Man(a1-3)[Man(a1-6)]Man(b1-4)GlcNAc(b1-4)GlcNAc
Procedure, shortened: as §1

[6] = biological target: Gal(b1-4)GlcNAc(b1-2)Man(a1-6)Man(b1-4)GlcNAc(b1-4)GlcNAc
Procedure, shortened: as §1

[7] = biological target: Gal(b1-4)GlcNAc(b1-2)Man(a1-6)[GlcNAc(b1-2)Man(a1-3)]Man(b1-4)GlcNAc(b1-4)GlcNAc
Procedure, shortened: as §1

[8] = biological target: Gal(b1-4)GlcNAc(b1-2)Man(a1-6)[Man(a1-3)]Man(b1-4)GlcNAc(b1-4)GlcNAc
Procedure, shortened: as §1

[9] = biological target: Gal(b1-4)GlcNAc(b1-2)[Gal(b1-4)GlcNAc(b1-4)]Man(a1-3)[Gal(b1-4)GlcNAc(b1-2)Man(a1-6)]Man(b1-4)GlcNAc(b1-4)GlcNAc
Procedure, shortened: as §1

[10] = biological target: Gal(b1-4)GlcNAc(b1-2)[Gal(b1-4)GlcNAc(b1-4)]Man(a1-3)[Gal(b1-4)GlcNAc(b1-2)[Gal(b1-4)GlcNAc(b1-6)]Man(a1-6)]Man(b1-4)GlcNAc(b1-4)GlcNAc
Procedure, shortened: as §1

[11] = biological target: Gal(b1-4)GlcNAc(b1-2)[Gal(b1-4)GlcNAc(b1-4)]Man(a1-3)[GlcNAc(b1-4)][Gal(b1-4)GlcNAc(b1-2)Man(a1-6)]Man(b1-4)GlcNAc(b1-4)GlcNAc
Procedure, shortened: as §1

[12] = biological target: Gal(b1-4)GlcNAc(b1-2)[Gal(b1-4)GlcNAc(b1-4)]Man(a1-3)[GlcNAc(b1-4)][Gal(b1-4)GlcNAc(b1-2)[Gal(b1-4)GlcNAc(b1-6)]Man(a1-6)]Man(b1-4)GlcNAc(b1-4)GlcNAc
Procedure, shortened: as §1

[13] = biological target: Gal(b1-4)GlcNAc(b1-2)[Gal(b1-4)GlcNAc(b1-6)]Man(a1-6)[Gal(b1-4)GlcNAc(b1-2)Man(a1-3)]Man(b1-4)GlcNAc(b1-4)GlcNAc
Procedure, shortened: as §1

[14] = biological target: Gal(b1-4)GlcNAc(b1-2)[Gal(b1-4)GlcNAc(b1-6)]Man(a1-6)[GlcNAc(b1-4)][Gal(b1-4)GlcNAc(b1-2)Man(a1-3)]Man(b1-4)GlcNAc(b1-4)GlcNAc
Procedure, shortened: as §1

[15] = biological target: Gal(b1-4)GlcNAc(b1-3)Gal(b1-3)GlcNAc
Procedure, shortened: as §1

[16] = biological target: Gal(b1-4)GlcNAc(b1-3)Gal(b1-4)Glc
Procedure, shortened: as §1

[17] = biological target: Gal(b1-4)GlcNAc(b1-3)Gal(b1-4)GlcNAc
Procedure, shortened: as §1

[18] = biological target: Gal(b1-4)GlcNAc(b1-3)Gal(b1-4)GlcNAc(b1-3)Gal(b1-4)GlcNAc
Procedure, shortened: as §1

[19] = biological target: Gal(b1-4)GlcNAc(b1-3)Gal(b1-4)[Fuc(a1-3)GlcNAc(b1-6)]Gal(b1-4)Glc
Procedure, shortened: as §1

[20] = biological target: Gal(b1-4)GlcNAc(b1-3)Gal(b1-4)[Fuc(a1-3)]GlcNAc(b1-3)Gal(b1-4)[Fuc(a1-3)]GlcNAc
Procedure, shortened: as §1

[21] = biological target: Gal(b1-4)GlcNAc(b1-3)GalNAc
Procedure, shortened: as §1

[22] = biological target: Gal(b1-4)GlcNAc(b1-3)[Gal(b1-4)GlcNAc(b1-6)]Gal(b1-4)GlcNAc
Procedure, shortened: as §1

[23] = biological target: Gal(b1-4)GlcNAc(b1-3)[Gal(b1-4)GlcNAc(b1-6)]GalNAc
Procedure, shortened: as §1

[24] = biological target: Gal(b1-4)GlcNAc(b1-3)[GlcNAc(b1-6)]Gal(b1-4)GlcNAc
Procedure, shortened: as §1

[25] = biological target: Gal(b1-4)GlcNAc(b1-6)Gal(b1-4)GlcNAc
Procedure, shortened: as §1

[26] = biological target: Gal(b1-4)GlcNAc(b1-6)GalNAc
Procedure, shortened: as §1

[27] = biological target: Gal(b1-4)GlcNAc(b1-6)[Gal(b1-3)]GalNAc
Procedure, shortened: as §1

Gal(b1-6)Gal = biological target: Gal(b1-6)Gal
Procedure, shortened: as §1

Gal3S(b1-3)GalNAc = biological target: Gal3S(b1-3)GalNAc
Procedure, shortened: as §1

Gal3S(b1-3)GlcNAc = biological target: Gal3S(b1-3)GlcNAc
Procedure, shortened: as §1

[28] = biological target: Gal3S(b1-3)[Fuc(a1-4)]GlcNAc
Procedure, shortened: as §1

Gal3S(b1-4)Glc = biological target: Gal3S(b1-4)Glc
Procedure, shortened: as §1

Gal3S(b1-4)Glc6S = biological target: Gal3S(b1-4)Glc6S
Procedure, shortened: as §1

Gal3S(b1-4)GlcNAc = biological target: Gal3S(b1-4)GlcNAc
Procedure, shortened: as §1

Gal3S(b1-4)GlcNAc6S = biological target: Gal3S(b1-4)GlcNAc6S
Procedure, shortened: as §1

[29] = biological target: Gal3S(b1-4)[Fuc(a1-3)]Glc
Procedure, shortened: as §1

[30] = biological target: Gal3S(b1-4)[Fuc(a1-3)]Glc6S
Procedure, shortened: as §1

Gal3S4S(b1-4)GlcNAc = biological target: Gal3S4S(b1-4)GlcNAc
Procedure, shortened: as §1

Gal3S6S(b1-4)GlcNAc = biological target: Gal3S6S(b1-4)GlcNAc
Procedure, shortened: as §1

Gal3S6S(b1-4)GlcNAc6S = biological target: Gal3S6S(b1-4)GlcNAc6S
Procedure, shortened: as §1

Gal4S(b1-4)GlcNAc = biological target: Gal4S(b1-4)GlcNAc
Procedure, shortened: as §1

Gal4S6S(b1-4)GlcNAc = biological target: Gal4S6S(b1-4)GlcNAc
Procedure, shortened: as §1

Gal6S(b1-3)GlcNAc = biological target: Gal6S(b1-3)GlcNAc
Procedure, shortened: as §1

Gal6S(b1-3)GlcNAc6S = biological target: Gal6S(b1-3)GlcNAc6S
Procedure, shortened: as §1

Gal6S(b1-4)Glc = biological target: Gal6S(b1-4)Glc
Procedure, shortened: as §1

B1: DCL-1 (Homo sapiens), Q8IX05 (protein)
chain: MLRAALPALLLPLLGLAAAAVADCPSSTWIQFQDSCYIFLQEAIKVESIEDVRNQCTDHGADMISIHNEEENAFILDTLKKQWKGPDDILLGMFYDTDDASFKWFDNSNMTFDKWTDQDDDEDLVDTCAFLHIKTGEWKKGNCEVSSVEGTLCKTAIPYKRKYLSDNHILISALVIASTVILTVLGAIIWFLYKKHSDSRFTTVFSTAPQSPYNEDCVLVVGEENEYPVQFD
glycan array binding signal (z-score) [1]: 1.63 | glycan array binding signal (z-score) [2]: -0.048 | glycan array binding signal (z-score) [3]: -0.786 | glycan array binding signal (z-score) [4]: 0.478 | glycan array binding signal (z-score) [5]: -0.71 | glycan array binding signal (z-score) [6]: -0.622 | glycan array binding signal (z-score) [7]: 0.387 | glycan array binding signal (z-score) [8]: -0.541 | glycan array binding signal (z-score) [9]: -0.037 | glycan array binding signal (z-score) [10]: 0.224 | glycan array binding signal (z-score) [11]: 1.33 | glycan array binding signal (z-score) [12]: -0.379 | glycan array binding signal (z-score) [13]: 0.317 | glycan array binding signal (z-score) [14]: -0.117 | glycan array binding signal (z-score) [15]: 0.326 | glycan array binding signal (z-score) [16]: 0.196 | glycan array binding signal (z-score) [17]: 2.35 | glycan array binding signal (z-score) [18]: -0.206 | glycan array binding signal (z-score) [19]: 0.396 | glycan array binding signal (z-score) [20]: 0.107 | glycan array binding signal (z-score) [21]: 0.221 | glycan array binding signal (z-score) [22]: -0.9 | glycan array binding signal (z-score) [23]: -0.088 | glycan array binding signal (z-score) [24]: 0.859 | glycan array binding signal (z-score) [25]: 0.43 | glycan array binding signal (z-score) [26]: -0.33 | glycan array binding signal (z-score) [27]: -0.001 | glycan array binding signal (z-score) (Gal(b1-6)Gal): -0.915 | glycan array binding signal (z-score) (Gal3S(b1-3)GalNAc): 0.095 | glycan array binding signal (z-score) (Gal3S(b1-3)GlcNAc): -0.083 | glycan array binding signal (z-score) [28]: -0.974 | glycan array binding signal (z-score) (Gal3S(b1-4)Glc): -1.45 | glycan array binding signal (z-score) (Gal3S(b1-4)Glc6S): 0.022 | glycan array binding signal (z-score) (Gal3S(b1-4)GlcNAc): 0.357 | glycan array binding signal (z-score) (Gal3S(b1-4)GlcNAc6S): -0.517 | glycan array binding signal (z-score) [29]: -0.654 | glycan array binding signal (z-score) [30]: 0.532 | glycan array binding signal (z-score) (Gal3S4S(b1-4)GlcNAc): -0.755 | glycan array binding signal (z-score) (Gal3S6S(b1-4)GlcNAc): 0.398 | glycan array binding signal (z-score) (Gal3S6S(b1-4)GlcNAc6S): -0.676 | glycan array binding signal (z-score) (Gal4S(b1-4)GlcNAc): -0.14 | glycan array binding signal (z-score) (Gal4S6S(b1-4)GlcNAc): -0.625 | glycan array binding signal (z-score) (Gal6S(b1-3)GlcNAc): -0.306 | glycan array binding signal (z-score) (Gal6S(b1-3)GlcNAc6S): -0.474 | glycan array binding signal (z-score) (Gal6S(b1-4)Glc): 0.156
